Among the data in the supplement of paper PMC11348887 are nucleus area z-score values, retold here.

Counter-ions that a name gives are not always drawn. Some of the results follow. Most values lie at the level of the controls, where differences are scatter. *1 amine or outer side, *2 acyl side, *3 side chain or, on linkers, in order; H or OH if unused. Where a SMILES comes first, the peptide text is derived from it. Bridges are numbered along the chain shown (N, C = ends). [ ]: non-standard residue; d: D form. The star is where a group is joined. hTyr(3S-OH,4S-OH,3'-OSO3H) = N[C@H](C(=O)O)[C@H](O)[C@@H](O)c1ccc(O)c(OS(=O)(=O)O)c1; Orn(4R-OH,5R-OH) = O=C([C@H](C[C@@H](O)[C@@H](O)N[*:3])N[*:1])[*:2]; Pro(3S-OH,4S-Me) = C[C@H]1CN[C@H](C(=O)O)[C@H]1O; X3 = CCCCCOc1ccc(-c2cc(-c3ccc(C(=O)*)cc3)no2)cc1; Gln(3R-OH) = NC(=O)C[C@@H](O)[C@H](N)C(=O)O; Hyp = O=C(O)[C@@H]1C[C@@H](O)CN1

In this test the test system is hPSC-derived cortical neurons (WA09). Put plainly: nucleus area z-score vs screen plate; higher = larger nuclei (more mature). The settings on record: 5 µM; treatment: days 7-14 after plating, readout day 21.
For `O=C(O)c1cccnc1Nc1cccc(C(F)(F)F)c1` [Niflumic acid], the nucleus area z-score was 0.0526.
In the case of `CC(=O)Oc1ccc(C(c2ccc(OC(C)=O)cc2)c2ccccn2)cc1` [Bisacodyl], the nucleus area z-score was -0.657.
For `C[C@H]1Oc2cc(cnc2N)-c2c(nn(C)c2C#N)CN(C)C(=O)c2ccc(F)cc21` the value was 0.911.
For `O=C(Nc1cccc(Nc2ncc(Br)c(NCCc3cnc[nH]3)n2)c1)N1CCCC1` the value was 0.888.
For `Cc1c(-c2ccc(O)cc2)n(Cc2ccc(OCCN3CCCCCC3)cc2)c2ccc(O)cc12` [Bazedoxifene Acetate] the value was -15.4.
As to `CN1CCC(CNc2ccc3ncc(-c4cccc(OC(F)(F)F)c4)n3n2)CC1` [SGI-1776 free base], the nucleus area z-score is -7.25.
In the case of `Nc1ccn([C@@H]2O[C@H](CO)[C@@H](O)C2(F)F)c(=O)n1` [Gemcitabine HCl] it was -2.88; in that of `Nc1ccc(S(=O)(=O)c2ccc(N)cc2)cc1` [Dapson], 0.2.
In the case of `CCOC(=O)[C@H](CCc1ccccc1)N[C@@H](C)C(=O)N1C(=O)N(C)C[C@H]1C(=O)O` [Imidapril HCl] it was -0.451.
In the case of `COc1ccc(N2C(=O)/C(=C\c3ccc([N+](=O)[O-])s3)SC2=S)cc1` it was 0.653; in that of `COc1cc(C(C)=O)ccc1O` [Apocynin], -0.0959.
Compound `O=C(O)c1cc(=O)[nH]c(=O)[nH]1` [Orotic acid (6-Carboxyuracil)] gave a nucleus area z-score of 1.4.
For `C[C@@H](NC(=O)c1ncnc(N)c1Cl)c1ncc(C(=O)Nc2cc(C(F)(F)F)c(Cl)cn2)s1` the value was 0.312.
For `O=C(Nc1ccc(S(=O)(=O)Nc2ccccc2Cl)c(Cl)c1)c1ccccn1` the value was 1.85; for `CN(C)CCC[C@@]1(c2ccc(F)cc2)OCc2cc(C#N)ccc21` [Escitalopram Oxalate], 0.375.
For `C[C@H](CCC(=O)NCCS(=O)(=O)O)[C@H]1CC[C@H]2[C@@H]3[C@@H](O)C[C@@H]4C[C@H](O)CC[C@]4(C)[C@H]3CC[C@]12C` [Sodium Tauroursodeoxycholate (TUDC)] the value was 1.97; for `Nc1cccc2c1CN(C1CCC(=O)NC1=O)C2=O` (configuration not stated) [Lenalidomide (CC-5013)], 1.08.
Take `C[C@H]1[C@H](OC(=O)CCC(=O)O)O[C@@H]2O[C@@]3(C)CC[C@H]4[C@H](C)CC[C@@H]1[C@@]24OO3` [Artesunate]: the nucleus area z-score is -0.523.
As for `NC(=O)N1c2ccccc2C=Cc2ccccc21` [Carbamazepine], the nucleus area z-score was 0.122.
In the case of `COc1ccc(CCc2nc3cc(-c4c(C)noc4C)ccc3n2C[C@H](C)N2CCOCC2)cc1Cl` it was 2.7.
For `CCS(=O)(=O)c1cccc(-c2cc(C(=O)NC3CCN(C)CC3)c(C)c3[nH]c4ncc(C)cc4c23)c1` the value was -18.
For `CC(C)(C)c1ccc(S(=O)(=O)NCc2ccc(C(=O)Nc3cccnc3)cc2)cc1` the value was 1.07; for `C=CC(=O)Nc1ccc2ncnc(Nc3cccc(Br)c3)c2c1`, 0.185.
Turning to `CC(=O)O[C@H]1Cc2ccccc2N(C(N)=O)c2ccccc21` [Eslicarbazepine Acetate], the nucleus area z-score was found to be 0.122.
For `O=C(O)CCc1nc2ccccc2[nH]1` [Procodazole] the value was 1.09.
For `O=C(O)c1ccccc1Nc1cccc(C(F)(F)F)c1` [Flufenamic acid] the value was 0.187.
Take `O=C(Nc1ccccc1)Nc1ccc(-c2ccc(C(=O)[C@@H]3CCC[C@H]3C(=O)O)cc2)cc1`: the nucleus area z-score is 0.657.
For `CCCCCOc1ccc(-c2cc(-c3ccc(C(=O)N[C@H]4C[C@@H](O)[C@@H](O)NC(=O)[C@@H]5[C@@H](O)[C@@H](C)CN5C(=O)[C@H]([C@H](O)CC(N)=O)NC(=O)[C@H]([C@H](O)[C@@H](O)c5ccc(O)c(OS(=O)(=O)O)c5)NC(=O)[C@@H]5C[C@@H](O)CN5C(=O)[C@H]([C@@H](C)O)NC4=O)cc3)no2)cc1` [Micafungin Sodium] (X3-[Orn(4R-OH,5R-OH)]T[Hyp][hTyr(3S-OH,4S-OH,3'-OSO3H)][Gln(3R-OH)][Pro(3S-OH,4S-Me)]; lactam 1-C) the value was -0.315; for `CC(C)(C)c1cc(C(C)(C)C)c(NC(=O)c2c[nH]c3ccccc3c2=O)cc1O` [Ivacaftor (VX-770)], 0.327.
For `O=C(COc1cccc2c(=O)[nH]ccc12)c1ccccc1` the value was -1.91; for `O=C(O)CC[C@H]1CC[C@@](c2cc(F)ccc2F)(S(=O)(=O)c2ccc(Cl)cc2)CC1`, 1.36; for `CCNC(=O)[C@H]1O[C@@H](n2cnc3c(N)nc(NCCc4ccc(CCC(=O)O)cc4)nc32)[C@H](O)[C@@H]1O`, -0.362.
